This assay concerns the target bovine trypsin (type III) (bovine) (UniProt P00760). The assay is described as follows: trypsin inhibition assay with 50 ul yeast supernatant.

Sequences of proteins named here, by UniProt entry; tags and fusion partners are left off. A change or cut given only in a name is not applied to a line headed by its entry. Residues count along the entry.
UniProt P00760, residues 24-246: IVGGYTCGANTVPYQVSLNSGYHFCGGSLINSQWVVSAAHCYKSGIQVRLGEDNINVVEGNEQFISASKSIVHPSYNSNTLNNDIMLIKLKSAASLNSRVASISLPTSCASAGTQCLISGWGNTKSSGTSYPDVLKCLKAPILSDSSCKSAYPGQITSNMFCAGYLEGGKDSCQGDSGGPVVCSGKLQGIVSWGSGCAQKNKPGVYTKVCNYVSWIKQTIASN
UniProt O43291: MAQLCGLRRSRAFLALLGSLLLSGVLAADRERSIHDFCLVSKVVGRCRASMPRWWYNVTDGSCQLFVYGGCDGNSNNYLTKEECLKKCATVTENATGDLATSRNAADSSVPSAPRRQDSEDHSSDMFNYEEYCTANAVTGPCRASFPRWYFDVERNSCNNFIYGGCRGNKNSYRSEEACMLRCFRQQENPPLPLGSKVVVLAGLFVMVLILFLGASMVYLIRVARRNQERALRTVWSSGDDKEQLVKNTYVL

These are yes or no findings as the source states them, for the method shown. Some binding calls cover weakened binding; strength is not graded here.

Turning to “recombinant placental bikunin (102-159) expressed in yeast strain SC101 (from UniProt O43291 129-186)”, the binding entry was “binds”.

For the origin of these results see EP1752538A1.
